# Measured values taken from patent publication US12029742B2, “Compositions and methods for the repair of myelin” (Duke University, priority 2014, dated 2024).
# Experiment: Mass spectrometry detection of oxysterols in human breast milk
# Settings: freshly pumped human breast milk, frozen at −80° C. or stored at 4° C. for six days; FIG. 7
row,Compound,level detected in human breast milk by mass spectrometry
1,C[C@@H](CO)CCC[C@@H](C)[C@H]1CC[C@H]2[C@@H]3CC=C4C[C@@H](O)CC[C@]4(C)[C@H]3CC[C@]12C [27-hydroxycholesterol],abundant levels
2,CC(C)CCC[C@](C)(O)[C@H]1CC[C@H]2[C@@H]3CC=C4C[C@@H](O)CC[C@]4(C)[C@H]3CC[C@@]21C [20α-hydroxycholesterol],not detected
3,C[C@H](CCCC(C)(C)O)[C@H]1CC[C@H]2[C@@H]3CC=C4C[C@@H](O)CC[C@]4(C)[C@H]3CC[C@]12C [25-hydroxycholesterol],abundant levels
4,CC(C)C(O)CC[C@@H](C)[C@H]1CC[C@H]2[C@@H]3CC=C4C[C@@H](O)CC[C@]4(C)[C@H]3CC[C@]12C (stereo partly shown) [24-hydroxycholesterol],abundant levels
